We go through 29 targets from the supplement of paper PMC10849652.

By UniProt entry, the sequences of proteins in these tests, tags left out. Where a name states a change or a piece, a line headed by the entry shows the natural chain unless it says otherwise.
UniProt P23284: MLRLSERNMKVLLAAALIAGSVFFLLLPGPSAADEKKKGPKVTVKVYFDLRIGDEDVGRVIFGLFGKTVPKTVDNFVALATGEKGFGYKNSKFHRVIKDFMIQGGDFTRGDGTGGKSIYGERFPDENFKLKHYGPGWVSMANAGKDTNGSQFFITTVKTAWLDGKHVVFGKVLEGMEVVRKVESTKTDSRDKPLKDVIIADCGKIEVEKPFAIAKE
UniProt Q9NP80: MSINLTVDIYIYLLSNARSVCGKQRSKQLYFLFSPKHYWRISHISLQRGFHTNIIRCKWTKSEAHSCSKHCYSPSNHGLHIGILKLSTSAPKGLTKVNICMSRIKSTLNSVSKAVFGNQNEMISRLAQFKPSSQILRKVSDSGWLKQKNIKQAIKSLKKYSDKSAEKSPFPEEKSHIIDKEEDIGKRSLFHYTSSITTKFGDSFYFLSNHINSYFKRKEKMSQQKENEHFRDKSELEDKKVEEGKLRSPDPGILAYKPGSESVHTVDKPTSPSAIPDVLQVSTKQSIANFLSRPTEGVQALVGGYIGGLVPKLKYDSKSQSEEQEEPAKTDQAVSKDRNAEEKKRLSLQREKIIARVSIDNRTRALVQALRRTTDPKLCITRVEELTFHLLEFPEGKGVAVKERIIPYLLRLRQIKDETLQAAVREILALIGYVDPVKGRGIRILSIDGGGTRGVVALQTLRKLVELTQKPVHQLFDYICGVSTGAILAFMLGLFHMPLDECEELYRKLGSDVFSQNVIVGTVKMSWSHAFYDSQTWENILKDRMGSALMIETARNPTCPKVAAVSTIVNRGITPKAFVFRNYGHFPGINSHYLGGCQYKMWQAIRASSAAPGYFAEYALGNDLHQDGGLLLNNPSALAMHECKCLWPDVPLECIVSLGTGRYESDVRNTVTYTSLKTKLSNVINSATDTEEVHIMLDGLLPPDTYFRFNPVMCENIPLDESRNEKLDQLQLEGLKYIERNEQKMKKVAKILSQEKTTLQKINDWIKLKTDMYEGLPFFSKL
UniProt O15160, whole entry, looked up: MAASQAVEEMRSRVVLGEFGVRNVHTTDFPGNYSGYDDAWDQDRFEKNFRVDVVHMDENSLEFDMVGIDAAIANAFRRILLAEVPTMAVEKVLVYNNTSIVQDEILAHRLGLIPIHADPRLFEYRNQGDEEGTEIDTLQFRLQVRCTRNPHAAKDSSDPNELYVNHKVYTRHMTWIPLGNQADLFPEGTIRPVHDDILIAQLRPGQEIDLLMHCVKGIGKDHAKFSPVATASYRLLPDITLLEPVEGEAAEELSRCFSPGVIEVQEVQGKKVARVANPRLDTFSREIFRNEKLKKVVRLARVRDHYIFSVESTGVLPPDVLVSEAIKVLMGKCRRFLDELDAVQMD
UniProt Q969H6: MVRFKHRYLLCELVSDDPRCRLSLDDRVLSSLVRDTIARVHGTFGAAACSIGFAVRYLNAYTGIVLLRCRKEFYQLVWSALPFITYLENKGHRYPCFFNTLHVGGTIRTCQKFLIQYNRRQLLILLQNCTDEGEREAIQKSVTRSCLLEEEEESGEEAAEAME
UniProt Q8N490: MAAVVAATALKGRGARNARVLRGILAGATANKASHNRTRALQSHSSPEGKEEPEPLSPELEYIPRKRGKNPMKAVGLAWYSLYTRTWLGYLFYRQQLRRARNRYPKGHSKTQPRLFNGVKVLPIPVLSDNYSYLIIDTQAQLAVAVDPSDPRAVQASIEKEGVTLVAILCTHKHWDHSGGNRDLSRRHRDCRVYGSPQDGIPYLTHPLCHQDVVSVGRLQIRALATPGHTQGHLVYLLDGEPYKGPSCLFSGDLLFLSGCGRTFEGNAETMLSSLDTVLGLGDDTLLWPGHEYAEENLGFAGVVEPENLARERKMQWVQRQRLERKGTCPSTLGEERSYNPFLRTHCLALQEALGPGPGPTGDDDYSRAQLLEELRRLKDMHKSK
UniProt Q92871: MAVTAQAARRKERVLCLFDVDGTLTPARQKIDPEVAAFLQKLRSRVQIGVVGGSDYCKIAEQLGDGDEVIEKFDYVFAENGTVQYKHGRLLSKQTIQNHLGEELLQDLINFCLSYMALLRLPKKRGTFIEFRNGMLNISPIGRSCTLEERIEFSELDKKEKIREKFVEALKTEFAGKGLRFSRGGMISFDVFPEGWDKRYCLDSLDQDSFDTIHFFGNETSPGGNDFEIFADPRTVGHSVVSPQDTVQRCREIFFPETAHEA
UniProt Q9NRF9: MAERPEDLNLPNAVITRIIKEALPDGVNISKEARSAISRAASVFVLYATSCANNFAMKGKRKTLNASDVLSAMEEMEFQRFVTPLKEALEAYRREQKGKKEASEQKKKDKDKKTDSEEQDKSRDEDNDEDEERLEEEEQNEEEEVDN
UniProt Q9BUI4: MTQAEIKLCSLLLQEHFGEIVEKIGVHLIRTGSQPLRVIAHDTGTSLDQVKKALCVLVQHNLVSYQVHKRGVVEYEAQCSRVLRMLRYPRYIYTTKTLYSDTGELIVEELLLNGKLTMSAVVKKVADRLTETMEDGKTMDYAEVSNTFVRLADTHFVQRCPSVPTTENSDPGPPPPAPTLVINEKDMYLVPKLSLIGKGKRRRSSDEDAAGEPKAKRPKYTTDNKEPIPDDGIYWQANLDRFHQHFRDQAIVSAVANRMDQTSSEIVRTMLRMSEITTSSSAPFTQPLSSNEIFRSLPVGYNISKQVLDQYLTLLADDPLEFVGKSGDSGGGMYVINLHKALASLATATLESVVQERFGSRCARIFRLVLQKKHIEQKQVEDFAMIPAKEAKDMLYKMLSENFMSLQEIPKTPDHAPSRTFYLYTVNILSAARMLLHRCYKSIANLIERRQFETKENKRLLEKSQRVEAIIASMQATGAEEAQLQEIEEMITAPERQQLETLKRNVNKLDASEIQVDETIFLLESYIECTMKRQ
UniProt Q9NW08: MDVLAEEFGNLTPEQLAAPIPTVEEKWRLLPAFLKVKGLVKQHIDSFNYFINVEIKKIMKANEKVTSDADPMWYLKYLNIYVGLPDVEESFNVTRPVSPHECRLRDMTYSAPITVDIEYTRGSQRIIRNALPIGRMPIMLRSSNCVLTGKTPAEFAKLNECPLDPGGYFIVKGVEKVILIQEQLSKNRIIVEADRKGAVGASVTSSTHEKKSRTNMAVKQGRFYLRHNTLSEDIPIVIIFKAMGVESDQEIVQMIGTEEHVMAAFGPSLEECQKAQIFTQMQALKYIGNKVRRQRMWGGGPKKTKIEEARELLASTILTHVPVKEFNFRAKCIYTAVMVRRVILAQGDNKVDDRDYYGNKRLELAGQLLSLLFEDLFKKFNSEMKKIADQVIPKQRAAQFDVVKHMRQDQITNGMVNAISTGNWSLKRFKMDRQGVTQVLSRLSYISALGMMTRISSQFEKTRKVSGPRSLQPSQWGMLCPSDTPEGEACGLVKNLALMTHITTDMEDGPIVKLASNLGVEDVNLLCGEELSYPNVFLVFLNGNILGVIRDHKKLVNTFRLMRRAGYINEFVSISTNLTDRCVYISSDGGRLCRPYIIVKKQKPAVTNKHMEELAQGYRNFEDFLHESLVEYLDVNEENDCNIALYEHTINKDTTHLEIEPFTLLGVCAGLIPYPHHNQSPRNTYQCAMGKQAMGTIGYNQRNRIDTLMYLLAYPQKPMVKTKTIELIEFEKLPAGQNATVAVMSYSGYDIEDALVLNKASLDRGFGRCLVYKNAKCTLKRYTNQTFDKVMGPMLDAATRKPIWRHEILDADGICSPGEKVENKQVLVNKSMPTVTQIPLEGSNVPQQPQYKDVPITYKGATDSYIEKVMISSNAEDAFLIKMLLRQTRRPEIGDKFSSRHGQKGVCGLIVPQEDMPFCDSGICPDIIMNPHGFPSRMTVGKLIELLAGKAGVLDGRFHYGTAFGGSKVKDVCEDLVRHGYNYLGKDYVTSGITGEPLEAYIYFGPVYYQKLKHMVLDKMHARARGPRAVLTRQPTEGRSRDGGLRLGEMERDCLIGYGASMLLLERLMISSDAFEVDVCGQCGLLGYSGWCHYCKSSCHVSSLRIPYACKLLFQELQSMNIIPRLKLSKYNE
UniProt Q8IWE5: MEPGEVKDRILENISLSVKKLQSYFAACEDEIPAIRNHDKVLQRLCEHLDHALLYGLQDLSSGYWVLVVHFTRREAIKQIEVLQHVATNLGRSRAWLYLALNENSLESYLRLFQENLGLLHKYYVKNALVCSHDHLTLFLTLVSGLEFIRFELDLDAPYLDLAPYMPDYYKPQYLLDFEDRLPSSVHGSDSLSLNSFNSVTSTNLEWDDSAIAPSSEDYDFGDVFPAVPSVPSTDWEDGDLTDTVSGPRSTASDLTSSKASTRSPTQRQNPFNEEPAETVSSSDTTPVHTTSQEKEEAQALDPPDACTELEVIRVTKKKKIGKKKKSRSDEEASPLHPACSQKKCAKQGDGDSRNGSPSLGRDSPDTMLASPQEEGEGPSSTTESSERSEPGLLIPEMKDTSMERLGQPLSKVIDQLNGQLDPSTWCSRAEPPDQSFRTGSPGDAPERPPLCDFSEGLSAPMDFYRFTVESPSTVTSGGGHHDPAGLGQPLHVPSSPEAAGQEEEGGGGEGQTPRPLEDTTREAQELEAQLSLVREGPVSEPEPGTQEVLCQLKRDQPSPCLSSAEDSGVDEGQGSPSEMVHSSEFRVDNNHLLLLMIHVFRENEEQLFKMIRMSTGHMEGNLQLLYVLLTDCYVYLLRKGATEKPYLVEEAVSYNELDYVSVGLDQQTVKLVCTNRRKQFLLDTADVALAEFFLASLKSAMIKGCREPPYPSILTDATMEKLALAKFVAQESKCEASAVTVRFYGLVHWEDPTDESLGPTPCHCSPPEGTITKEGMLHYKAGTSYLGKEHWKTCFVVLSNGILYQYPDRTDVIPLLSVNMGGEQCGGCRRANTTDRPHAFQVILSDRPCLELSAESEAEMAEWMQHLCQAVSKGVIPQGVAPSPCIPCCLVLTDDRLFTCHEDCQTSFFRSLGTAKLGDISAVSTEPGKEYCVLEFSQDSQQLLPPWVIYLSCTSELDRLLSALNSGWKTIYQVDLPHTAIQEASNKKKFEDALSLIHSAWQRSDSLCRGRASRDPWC
UniProt Q15126: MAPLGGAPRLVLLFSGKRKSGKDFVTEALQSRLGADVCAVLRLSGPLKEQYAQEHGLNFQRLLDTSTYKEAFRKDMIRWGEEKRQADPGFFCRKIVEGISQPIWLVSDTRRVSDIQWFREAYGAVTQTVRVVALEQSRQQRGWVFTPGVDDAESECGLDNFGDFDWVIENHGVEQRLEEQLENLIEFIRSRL
UniProt P53350, whole entry, looked up: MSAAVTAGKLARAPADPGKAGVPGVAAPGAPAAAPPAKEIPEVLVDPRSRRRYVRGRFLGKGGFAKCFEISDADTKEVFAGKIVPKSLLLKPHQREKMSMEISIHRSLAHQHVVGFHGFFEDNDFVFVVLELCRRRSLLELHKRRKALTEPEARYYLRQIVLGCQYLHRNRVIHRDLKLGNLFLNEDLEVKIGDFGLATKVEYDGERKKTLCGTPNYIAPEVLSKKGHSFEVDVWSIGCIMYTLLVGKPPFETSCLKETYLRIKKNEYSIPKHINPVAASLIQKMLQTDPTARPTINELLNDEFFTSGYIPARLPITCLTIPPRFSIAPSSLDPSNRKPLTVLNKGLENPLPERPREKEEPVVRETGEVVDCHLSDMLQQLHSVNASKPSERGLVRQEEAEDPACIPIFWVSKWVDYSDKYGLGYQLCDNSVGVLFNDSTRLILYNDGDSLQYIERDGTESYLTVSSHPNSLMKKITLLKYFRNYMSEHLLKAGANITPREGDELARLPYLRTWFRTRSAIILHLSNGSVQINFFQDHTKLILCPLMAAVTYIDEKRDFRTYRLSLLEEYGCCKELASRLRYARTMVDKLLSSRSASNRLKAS
UniProt O15162: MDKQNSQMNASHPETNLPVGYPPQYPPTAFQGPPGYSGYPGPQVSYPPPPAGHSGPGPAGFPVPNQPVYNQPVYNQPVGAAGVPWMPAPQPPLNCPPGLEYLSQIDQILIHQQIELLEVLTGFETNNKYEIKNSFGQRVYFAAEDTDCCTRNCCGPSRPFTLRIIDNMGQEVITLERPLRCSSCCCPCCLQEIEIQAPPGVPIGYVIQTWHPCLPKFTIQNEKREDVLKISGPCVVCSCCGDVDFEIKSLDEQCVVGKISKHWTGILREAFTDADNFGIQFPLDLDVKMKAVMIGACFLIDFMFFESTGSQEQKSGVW
UniProt Q9HBL7: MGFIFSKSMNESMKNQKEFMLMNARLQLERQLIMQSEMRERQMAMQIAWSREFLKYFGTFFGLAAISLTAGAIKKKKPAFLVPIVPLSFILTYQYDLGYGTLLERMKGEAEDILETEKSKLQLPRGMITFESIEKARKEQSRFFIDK
UniProt Q9NVS9: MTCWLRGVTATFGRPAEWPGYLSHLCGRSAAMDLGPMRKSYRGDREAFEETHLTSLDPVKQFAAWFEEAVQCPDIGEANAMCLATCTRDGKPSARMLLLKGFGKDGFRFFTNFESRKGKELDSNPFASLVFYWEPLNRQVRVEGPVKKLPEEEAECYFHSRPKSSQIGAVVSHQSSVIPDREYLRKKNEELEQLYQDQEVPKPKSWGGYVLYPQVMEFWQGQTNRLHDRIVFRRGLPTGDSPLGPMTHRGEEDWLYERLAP

The other results are listed elsewhere or left out.

Experiment in all cases: log2 fold change, soluble protein after heating vs DMSO (PISA); higher = thermal stabilisation; K562 lysate, 10 uM; active = over 0.2 and 3.5 SD of the protein, either way, in both replicates (recomputed)
Compound in assay [1]: NCC(=O)Nc1ccc(-n2nc(C(F)(F)F)cc2-c2ccc3c(ccc4ccccc43)c2)cc1
The gist of the method:
(§1)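 Thermal stability, expressed as log-two fold change relative to solvent controls, is given from duplicates. Crude K562 extract in PBS pH 7.4 with 1 mM MgCl2, at 1 mg/mL protein, was treated with 10 μM compound for 30 min and heated in aliquots for 3 min across 48°C-58°C. After pooling, adjustment to 0.5% NP-40 at 4°C and centrifugation at 21,000xg for 90 min, supernatant protein was measured by TMTpro 16plex LC-MS/MS with channel sums equalised.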

Compound in the next assay: O=C(CCCCCCC(=O)Nc1ccccc1)NO [vorinostat]
The method, boiled down: as §1

Compound in the next assay: O=C(O)c1ccc2c(c1)nc(Nc1cccc(Cl)c1)c1ccncc12 [silmitasertib]
The method, boiled down:
as §1

Compound in assay [2]: O=C1NC(=O)C(c2cnc3ccccn23)=C1c1cn2c3c(cc(F)cc13)CN(C(=O)N1CCCCC1)CC2
The gist of the method: as §1

Compound in the next assay: c1cn2cc(-c3ccc4cn[nH]c4c3)nc(Nc3ccc(N4CCOCC4)cc3)c2n1 [entospletinib]
The gist of the method: as §1

With PPIB (UniProt P23284), the log2 fold change in assay [1] is inactive: 0.014; with vorinostat it was inactive: 0.102; in the assay with silmitasertib it was inactive: -0.002; in assay [2], inactive: 0.009; with entospletinib, inactive: -0.011.

As to POLR2H (UniProt P52434), the log2 fold change is inactive: 0.032 in assay [1]; inactive: 0.086 with vorinostat; inactive: -0.004 in the assay with silmitasertib; inactive: 0.018 in assay [2]; inactive: -0.002 with entospletinib.

For the target POLR3G (UniProt O15318), the log2 fold change in assay [1] is inactive: 0.039; with vorinostat, inactive: 0.106; with silmitasertib, inactive: -0.035; in assay [2] it was inactive: 0.047; with entospletinib it was inactive: -0.054.

Consider PNPLA8 (UniProt Q9NP80), for which the log2 fold change in assay [1] was inactive: 0.054; with vorinostat, inactive: 0.04; in the assay with silmitasertib, inactive: 0.064; in assay [2], inactive: 0.004; with entospletinib it was inactive: -0.008.

On to POLR1C (UniProt O15160), for which the log2 fold change in assay [1] is inactive: -0.045; in the assay with vorinostat it was inactive: -0.162; in the assay with silmitasertib, inactive: 0.059; in assay [2], inactive: 0.018; with entospletinib it was inactive: -0.068.

For POP5 (UniProt Q969H6), the log2 fold change is inactive: -0.034 in assay [1]; inactive: -0.059 with vorinostat; inactive: 0.05 with silmitasertib; inactive: 0.048 in assay [2]; inactive: 0.072 with entospletinib.

Regarding PNKD isoform 2 (UniProt Q8N490), the log2 fold change in assay [1] was inactive: -0.157; with vorinostat, inactive: 0.05; in the assay with silmitasertib, inactive: -0.011; in assay [2], inactive: -0.138; in the assay with entospletinib, inactive: 0.086.

Consider PMM1 (UniProt Q92871), for which the log2 fold change in assay [1] is inactive: 0.072; with vorinostat it was inactive: -0.113; with silmitasertib it was inactive: 0.009; in assay [2], inactive: 0.037; with entospletinib, inactive: 0.009.

Take POLR3A (UniProt O14802): the log2 fold change is inactive: 0.003 in assay [1]; inactive: -0.169 in the assay with vorinostat; inactive: 0.019 with silmitasertib; inactive: -0.012 in assay [2]; inactive: -0.033 with entospletinib.

For the target POLE3 (UniProt Q9NRF9), the log2 fold change in assay [1] is inactive: -0.011; with vorinostat it was inactive: 0.086; in the assay with silmitasertib, inactive: -0.01; in assay [2], inactive: -0.001; with entospletinib, inactive: 0.023.

As for POLR3C (UniProt Q9BUI4), the log2 fold change in assay [1] was inactive: 0.017; in the assay with vorinostat, inactive: 0.02; with silmitasertib, inactive: -0.04; in assay [2], inactive: -0.048; in the assay with entospletinib, inactive: -0.014.

As for POLR1A (UniProt O95602), the log2 fold change is inactive: 0.027 in assay [1]; inactive: 0.024 with vorinostat; inactive: 0.01 in the assay with silmitasertib; inactive: 0 in assay [2]; inactive: 0.031 with entospletinib.

For the target POLD1 (UniProt P28340), the log2 fold change was inactive: 0.016 in assay [1]; active: -0.245 in the assay with vorinostat; inactive: 0.016 with silmitasertib; inactive: 0.005 in assay [2]; inactive: -0.009 in the assay with entospletinib.

Consider POLR2D (UniProt O15514), for which the log2 fold change in assay [1] is inactive: 0.011; in the assay with vorinostat, inactive: 0.137; in the assay with silmitasertib, inactive: -0.044; in assay [2] it was inactive: 0.009; in the assay with entospletinib, inactive: -0.098.

Turning to POLR2F (UniProt P61218), the log2 fold change is inactive: -0.019 in assay [1]; inactive: 0.171 in the assay with vorinostat; inactive: 0.008 with silmitasertib; inactive: 0.027 in assay [2]; inactive: -0.086 with entospletinib.

As for POLR3B (UniProt Q9NW08), the log2 fold change is inactive: 0.004 in assay [1]; inactive: -0.202 in the assay with vorinostat; inactive: 0 with silmitasertib; inactive: -0.041 in assay [2]; inactive: -0.044 with entospletinib.

In the case of PLXNA1 (UniProt Q9UIW2), the log2 fold change is inactive: -0.012 in assay [1]; inactive: 0.043 with vorinostat; inactive: -0.006 with silmitasertib; inactive: 0 in assay [2]; inactive: -0.018 with entospletinib.

In the case of PPHLN1 (UniProt Q8NEY8), the log2 fold change in assay [1] is inactive: 0.039; with vorinostat, inactive: -0.141; with silmitasertib it was inactive: -0.018; in assay [2], inactive: 0.053; in the assay with entospletinib, inactive: -0.002.

In the case of PLEKHM2 (UniProt Q8IWE5), the log2 fold change in assay [1] is inactive: -0.022; with vorinostat it was inactive: 0.081; with silmitasertib, inactive: 0; in assay [2] it was inactive: -0.036; in the assay with entospletinib, inactive: -0.003.

With POFUT1 (UniProt Q9H488), the log2 fold change was inactive: -0.016 in assay [1]; inactive: 0.131 in the assay with vorinostat; inactive: -0.026 with silmitasertib; inactive: -0.002 in assay [2]; inactive: 0.018 with entospletinib.

Regarding POLR2E (UniProt P19388), the log2 fold change in assay [1] was inactive: 0; with vorinostat it was inactive: -0.101; with silmitasertib, inactive: 0.022; in assay [2] it was inactive: 0.059; with entospletinib, inactive: -0.016.

Regarding PMVK (UniProt Q15126), the log2 fold change in assay [1] was inactive: 0.021; in the assay with vorinostat it was inactive: -0.221; with silmitasertib, inactive: 0.076; in assay [2], inactive: -0.072; in the assay with entospletinib it was inactive: 0.004.

As to PLK1 (UniProt P53350), the log2 fold change in assay [1] was inactive: 0.027; with vorinostat, active: -0.638; in the assay with silmitasertib, inactive: 0.005; in assay [2] it was inactive: 0.022; in the assay with entospletinib, inactive: 0.072.

With POP1 (UniProt Q99575), the log2 fold change in assay [1] is inactive: 0.016; in the assay with vorinostat it was inactive: 0.077; in the assay with silmitasertib, inactive: -0.019; in assay [2], inactive: 0.01; in the assay with entospletinib, inactive: 0.008.

On to POLB (UniProt P06746), for which the log2 fold change is inactive: 0.027 in assay [1]; active: -0.302 with vorinostat; inactive: -0.106 with silmitasertib; inactive: -0.023 in assay [2]; inactive: 0.022 in the assay with entospletinib.

PLSCR1 (UniProt O15162): the log2 fold change in assay [1] is inactive: 0.01; with vorinostat, inactive: 0.096; with silmitasertib it was inactive: -0.062; in assay [2] it was inactive: -0.03; with entospletinib, inactive: 0.024.

Consider PLGRKT (UniProt Q9HBL7), for which the log2 fold change in assay [1] was inactive: -0.06; with vorinostat it was inactive: 0.034; in the assay with silmitasertib, inactive: -0.001; in assay [2], inactive: 0.073; with entospletinib, inactive: -0.154.

With PNPO (UniProt Q9NVS9), the log2 fold change is inactive: -0.224 in assay [1]; inactive: -0.093 in the assay with vorinostat; inactive: -0.002 with silmitasertib; inactive: -0.034 in assay [2]; inactive: 0.022 with entospletinib.

For POR (UniProt P16435), the log2 fold change in assay [1] was inactive: -0.013; with vorinostat, inactive: 0.107; in the assay with silmitasertib, inactive: -0.013; in assay [2], inactive: 0.008; with entospletinib, inactive: -0.027.
